Assay results taken from article PMC6701817.
These are yes or no findings as the source states them, for the method shown. In cells and extracts the contact can be indirect. Some entries that bind do so weakly or less than the wild type.

Protein sequences, listed by entry. Tags and fused reporters are not part of them.
UniProt Q8R418: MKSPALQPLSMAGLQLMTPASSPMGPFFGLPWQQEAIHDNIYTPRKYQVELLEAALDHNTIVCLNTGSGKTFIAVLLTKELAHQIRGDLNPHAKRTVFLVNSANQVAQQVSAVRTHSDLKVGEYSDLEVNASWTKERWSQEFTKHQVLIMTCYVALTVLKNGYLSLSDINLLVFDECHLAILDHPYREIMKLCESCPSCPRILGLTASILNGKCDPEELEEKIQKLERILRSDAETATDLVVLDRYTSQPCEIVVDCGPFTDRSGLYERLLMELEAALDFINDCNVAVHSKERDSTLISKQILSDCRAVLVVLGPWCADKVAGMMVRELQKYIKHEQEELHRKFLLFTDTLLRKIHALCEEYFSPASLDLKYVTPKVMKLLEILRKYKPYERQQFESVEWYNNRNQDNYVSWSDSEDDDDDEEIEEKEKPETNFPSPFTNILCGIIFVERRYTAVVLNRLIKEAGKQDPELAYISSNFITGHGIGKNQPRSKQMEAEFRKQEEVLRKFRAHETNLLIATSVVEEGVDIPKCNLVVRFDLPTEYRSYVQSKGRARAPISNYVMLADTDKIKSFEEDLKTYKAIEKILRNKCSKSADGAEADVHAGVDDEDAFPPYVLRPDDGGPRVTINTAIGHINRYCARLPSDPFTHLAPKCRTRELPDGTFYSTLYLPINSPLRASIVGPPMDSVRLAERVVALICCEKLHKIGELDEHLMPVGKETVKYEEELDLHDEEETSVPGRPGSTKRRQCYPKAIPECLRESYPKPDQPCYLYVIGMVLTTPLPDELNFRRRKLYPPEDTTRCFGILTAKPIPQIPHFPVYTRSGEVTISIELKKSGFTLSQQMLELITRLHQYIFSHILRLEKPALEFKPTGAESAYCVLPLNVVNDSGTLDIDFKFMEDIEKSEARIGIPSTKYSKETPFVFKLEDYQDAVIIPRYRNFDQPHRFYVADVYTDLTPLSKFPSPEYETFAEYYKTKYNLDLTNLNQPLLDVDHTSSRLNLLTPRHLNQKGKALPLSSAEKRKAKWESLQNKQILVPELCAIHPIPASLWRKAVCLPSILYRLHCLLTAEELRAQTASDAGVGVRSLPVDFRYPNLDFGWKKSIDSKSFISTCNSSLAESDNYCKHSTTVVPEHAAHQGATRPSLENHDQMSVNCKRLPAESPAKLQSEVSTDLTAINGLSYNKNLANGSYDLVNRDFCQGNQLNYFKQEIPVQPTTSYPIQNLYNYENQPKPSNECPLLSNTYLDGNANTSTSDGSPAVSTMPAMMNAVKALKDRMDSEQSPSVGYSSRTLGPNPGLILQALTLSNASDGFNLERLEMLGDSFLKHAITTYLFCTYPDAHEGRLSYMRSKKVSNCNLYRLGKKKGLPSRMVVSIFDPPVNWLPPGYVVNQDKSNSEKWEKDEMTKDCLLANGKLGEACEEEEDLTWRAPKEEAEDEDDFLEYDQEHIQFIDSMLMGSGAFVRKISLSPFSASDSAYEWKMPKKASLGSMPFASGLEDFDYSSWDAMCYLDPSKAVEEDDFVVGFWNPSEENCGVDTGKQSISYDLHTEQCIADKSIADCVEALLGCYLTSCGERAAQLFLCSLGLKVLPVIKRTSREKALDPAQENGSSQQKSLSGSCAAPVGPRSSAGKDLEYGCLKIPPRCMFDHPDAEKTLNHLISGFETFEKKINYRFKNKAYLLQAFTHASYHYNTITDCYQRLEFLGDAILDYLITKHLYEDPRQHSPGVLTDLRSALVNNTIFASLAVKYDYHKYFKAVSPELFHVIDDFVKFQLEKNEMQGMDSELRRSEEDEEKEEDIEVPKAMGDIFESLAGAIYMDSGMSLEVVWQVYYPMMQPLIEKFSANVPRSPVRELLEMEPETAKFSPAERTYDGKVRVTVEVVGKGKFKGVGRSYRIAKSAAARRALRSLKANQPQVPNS

Target: FLAG- and V5-tagged Argonaute2 protein (FLAG-V5-Ago2) (UniProt Q9UKV8)
Test: co-IP; Ago-Tag IP: S1 supernatant of Tagger mouse brain homogenate in Polysome Buffer (50 mM Tris pH 7.5, 100 mM KCl, 12 mM MgCl2, 1% Nonidet P-40) with anti-FLAG M2 magnetic beads, 4°C; washes in High Salt and Extra High Salt Buffer; immunoblot

## Dicer (from UniProt Q8R418 1-1916)
  binding: binds

## endogenous Argonaute 2 (Ago2) (from UniProt Q8CJG0 1-860)
  binding: binds
